Measurements: PubChem BioAssay AID2685 (National Center for Advancing Translational Sciences (NCATS), 2010)
The whole screen tested about 320,000 compounds, of which about 2,100 (0.66%) were called active. Inconclusive results, whose numbers are uncertain, are shown with a selection of clear calls. Calls come from the whole dose curve; as a rule, active = well fitted inhibition curve with a large enough effect in the signal ratio, with a control signal flat (not every such curve was filed as active); inconclusive = small, poorly fitted or top-dose-only effect, or effect the other way, or a change in a side signal; inactive = flat fitted curve, though single readings scatter; the % refers to the signal ratio. A potency beside an inconclusive call is a rough fit, not a confirmed value.

experiment: qHTS Assay for Lipid Storage Modulators in Drosophila S3 Cells; conditions: BODIPY lipid droplet fluorescence, 18-24 h, cells fed with added oleic acid; lipid storage change, negative = inhibition: at 46.1 µM (top of the series) unless noted
In short: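 Drosophila S3 cells loaded with oleic acid (400 uM, as added) and compounds at several concentrations; lipid droplets imaged by 488-nm laser-scanning cytometry, 500–530 nm intensity and object ratio to cell channel. Percent activity normalized to 20 uM Triacsin C.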
% is set by controls: 0 for no effect and ±100 for the full control effect; potency is the fitted concentration of half-maximal effect.

SMILES	lipid storage change, negative = inhibition	Potency
Cc1cc(NC(=O)COC(=O)CCNS(=O)(=O)c2cccc(C(F)(F)F)c2)no1	inconclusive: 15.3% [at 9.22 µM]	
O=C(Cn1c(NCCO)nc2ccccc21)c1ccc(F)cc1		inconclusive: 6.51 µM [activator, single point]
C=CCSC1=N/C(=C\C=C\c2ccco2)C(=O)S1	inconclusive: -41%	
COC(=O)c1cc2c(s1)-c1cc(F)ccc1OC2	inconclusive: 6.16%	
Cc1nnc(SCC(=O)NC(C)(C)C)n1NCc1cccc(Br)c1		inconclusive: 11.6 µM [activator, partial curve, poor fit]
O=C(Cc1ccc(-n2c(=S)[nH]c3ccccc3c2=O)cc1)N1CCC(N2CCCCC2)CC1		inconclusive: 29.1 µM [falling, single point]
CCC1CN(C(=O)N2CCC(C(=O)NCc3cccc(F)c3)CC2)c2ccccc2O1 (stereo not given)		inconclusive: 0.13 µM [activator, full curve, poor fit]
Cc1nc(N2CCc3ccccc3C2)[nH]c(=O)c1CCC(C)C	inconclusive: -5.49%	
Cc1ccc(C)n1CCN1CCN(C(=O)c2ccco2)CC1	inconclusive: 21.8%	
COc1ccc2cc(C(=O)Nc3ccc(Cl)cc3)sc(=O)c2c1OC	inconclusive: -42.2%	
CCCOC(=O)c1sc2nc3c(cc2c1N)C(=O)CCC3		inconclusive: 4.11 µM [activator, partial curve]
O=C(NNS(=O)(=O)c1ccccc1)C1CCCCC1	inconclusive: 8.57%	
O=C(COn1nnc2ccc(Cl)cc21)Nc1ccc(F)cc1	inconclusive: 1.26%	
NC(=O)N/N=C/c1ccc(N2CCOCC2)s1	inconclusive: 34.9%	
CC(C)CC(=O)Nc1ccnn1C1CCN(C(=O)c2ccc(F)cc2Cl)CC1	inconclusive: -14.4%	
O=C(Cn1c(COc2ccc(Cl)cc2)nc2ccccc21)NCC(F)(F)F	inconclusive: 0.284%	
CCOc1ccc(/C=N/n2cnnc2)cc1	inconclusive: 27.5%	
COc1ccc(N2CC(C)Cn3c2nc2c3c(=O)[nH]c(=O)n2C)cc1 (stereo not given)	inconclusive: -10.3%	
CCOC(=O)C1CCN(C(=O)CN(c2cccc(C(F)(F)F)c2)S(C)(=O)=O)CC1	inconclusive: -1.36%	
O=C(N/N=C/c1cn(-c2ccccc2)nc1-c1cccnc1)c1ccc(F)cc1	inconclusive: 12.7%	
CCC(C)NC(=O)CSc1nnc(-c2ccoc2C)n1CC1CCCO1 (stereo not given)	inconclusive: 18.5%	
COc1ccc(N=c2oc3cc(O)ccc3cc2C(=O)NCC2CCCO2)cc1 (stereo not given)	inconclusive: -2.55%	
O=C(OC1CCOC1=O)c1ccc(Cl)c(S(=O)(=O)N2CCCCC2)c1 (stereo not given)		inconclusive: 2.59 µM [falling, single point]
COc1ccc(-c2csc(NC(=O)c3ccoc3C)n2)cc1	inconclusive: 0.0149%	
Fc1ccc(-c2nnc(CSc3nnc(-c4cccs4)o3)o2)cc1	inconclusive: 4.5%	

SMILES	lipid storage change, negative = inhibition	Potency
CC(C)C(NC(=O)c1c(F)cccc1F)C(=O)N1CCN(S(=O)(=O)c2ccc(F)cc2)CC1 (stereo not given)	inconclusive: 19.4%	
CCOC(=O)c1ccc(Nc2nnc(C(C)(C)C)c(=O)[nH]2)cc1		inconclusive: 0.0517 µM [falling, full curve, poor fit]
COc1ccc(NS(=O)(=O)c2ccc(N3CC(O)=C(c4ccccc4)C3=N)cc2)cc1	inactive: 12.1%	
COc1ccc(Br)cc1CN(C)C(=O)c1cnc(C)cn1	inconclusive: 22.3%	
Cc1cc(C)cc(C(=O)NCC(=O)OCC(=O)N(C)C2CCS(=O)(=O)C2)c1 (stereo not given)		inconclusive: 1.64 µM [falling, partial curve, poor fit]
CCn1nc(C(=O)Nc2cccc(S(=O)(=O)N3CCCC3)c2)c2ccccc2c1=O	inconclusive: 20.9%	
Cc1ccc(CNC(=O)c2cc(S(=O)(=O)N3CCCCC3)ccc2N2CCOCC2)cc1		inconclusive: 3.26 µM [activator, full curve, poor fit]
CCN(CC)CCCN1C(=O)C(O)=C(C(=O)c2cc3cccc(OC)c3o2)C1c1ccncc1 (stereo not given)	inconclusive: -2.42%	
Cc1ccc(NC(=O)/C(=C\c2ccc3c(c2)OCO3)NC(=O)c2ccco2)cc1	inconclusive: -14.6%	
CC(C)CNC(=O)C(=O)NCC1OCCCN1S(=O)(=O)c1cccs1 (stereo not given)	inconclusive: -2.9%	
CC(C)(C)c1cn(-c2ccc(Cl)cc2)c(=S)[nH]1	inconclusive: 47.1%	
CSCCC(NS(=O)(=O)c1ccc(Cl)cc1)C(=O)OCC(=O)c1c(C)[nH]c2ccccc12 (stereo not given)	inconclusive: -38.5%	
CCC(C)NC(=O)CNC(=S)N(Cc1ccc(F)cc1)C1CCCCC1 (stereo not given)	inconclusive: -24.4%	
COc1ccc([C@]23Cc4cc(C#N)ccc4C(O2)c2c(cc(C)n(-c4ccccc4)c2=O)O3)cc1	inconclusive: 32.1% [at 9.22 µM]	
CCC(=O)Nc1cccc(C(=O)c2ccccc2)c1		inconclusive: 1.84 µM [activator, partial curve]
Cc1ccc(NC(=O)Nc2cccc([N+](=O)[O-])c2)cc1F		active: 9.2 µM
Cc1ccc(-c2cnn3c(N4CCOCC4)cc(C)nc23)cc1	inconclusive: 48.3%	
C[C@@H]1CC=C[C@H]2[C@H]1C(=O)N(Cc1ccccc1)[C@H]2c1ccc(F)c(/C=C/c2ccccc2)c1	inconclusive: 14.6%	
COc1cc(C2c3c(-c4ccccc4)n[nH]c3C(=O)N2c2ccc(C(=O)O)cc2)ccc1O (stereo not given)		inconclusive: 23.1 µM [activator, single point]
Cc1cc(C)c2c(CC(=O)Nc3nccs3)coc2c1		inconclusive: 0.231 µM [activator, full curve, poor fit]
CC(C)(C)c1ccc(C(=O)N2CCC(C(=O)N3CCCCC3)CC2)cc1	inconclusive: 11.4%	
CN(C)c1ccc(C(C(=O)NCC2CCCO2)N(C(=O)c2snc(C(N)=O)c2N)c2ccccc2)cc1 (stereo not given)	inconclusive: -12%	
O=C(CSc1nnc(NC(=O)c2ccco2)s1)Nc1ccccc1		inconclusive: 4.61 µM [falling, partial curve, poor fit]
O=S(=O)(Nc1ccc(O)c2ccccc12)c1ccc(Br)cc1		inconclusive: 1.3 µM [activator, single point]
COc1ccc(CCNC(=O)c2ccc3c(c2)NC(=O)C(N2CCOCC2)S3)cc1OC (stereo not given)	inconclusive: -23.3%	

Single records, as listed above.
Cc1ccc(CNC(=O)c2cc(S(=O)(=O)N3CCCCC3)ccc2N2CCOCC2)cc1 reads Potency: inconclusive: 3.26 µM [activator, full curve, poor fit]
CCC(=O)Nc1cccc(C(=O)c2ccccc2)c1 reads Potency: inconclusive: 1.84 µM [activator, partial curve]
CCN(CC)CCCN1C(=O)C(O)=C(C(=O)c2cc3cccc(OC)c3o2)C1c1ccncc1 (stereo not given) reads lipid storage change, negative = inhibition: inconclusive: -2.42%

(further entries)

SMILES	lipid storage change, negative = inhibition	Potency
Cc1cccc(-n2ncc3c(NCCCN4CCCC4=O)ncnc32)c1	inconclusive: -1.01%	
COC(=O)Cc1ccc(NC(=S)Nc2ccc(N3CCOCC3)cc2)cc1	inconclusive: 31.9%	
COC(=O)Cc1c(C)c2ccc(OC(C)C)cc2oc1=O	inconclusive: 41.5%	
CCOC(=O)C1CCN(Cc2ccc(OC)cc2OC)CC1		inconclusive: 29.1 µM [cytotoxic, partial curve, poor fit]
O=C(Nc1ccncc1)Nc1ccncc1	inconclusive: 32.8%	
Cc1ccc(C)c(C(=O)CCC(=O)O)c1	inconclusive: -0.705%	
CCCCSC(=O)Nc1ccccc1	inconclusive: -2.94%	
CCN(CC)S(=O)(=O)c1ccc(/C=C/C(=O)OCC(=O)Nc2cccnc2Cl)cc1		inconclusive: 0.0058 µM [falling, full curve, poor fit]
Cc1c(Cc2ccc3c(c2)OCO3)sc(NC(=O)c2ccccc2)c1C(N)=O		inconclusive: 32.6 µM [cytotoxic, single point]
Cc1cccc(NC(=O)c2ccc(Cl)c(S(=O)(=O)N3CCc4ccccc43)c2)n1		inconclusive: 14.6 µM [falling, partial curve, poor fit]
NNC(=S)Nc1cccc(Cl)c1	inconclusive: 25.5%	
COc1cccc(CN2C(=NC(=O)C3CC3)SC3CS(=O)(=O)CC32)c1 (stereo not given)		inconclusive: 29.1 µM [activator, single point]
O=C(O)c1cccc(N2C(=O)Nc3ccccc3N2O)c1	inconclusive: -23.4%	
CC(C)N(C(=O)Cn1cc(S(=O)(=O)CC(=O)NCc2ccccc2)c2ccccc21)C(C)C		inconclusive: 29.1 µM [activator, single point]
CC(=O)Nc1ccc(S(=O)(=O)NCC(=O)NCCc2ccc(S(N)(=O)=O)cc2)cc1	inconclusive: -24.6%	
C/C(Sc1nnc(Cc2ccccc2)o1)=C(/O)c1ccccc1	inconclusive: -40.2%	
Cc1ccc(NC(=O)CN2CCC(NC(=O)c3cccc(F)c3)CC2)cc1C		inconclusive: 0.731 µM [falling, single point]
Cc1nc2nc(-c3ccccc3)[nH]n2c(=O)c1C		inconclusive: 29.1 µM [activator, single point]
COc1ccc(-c2cc(OC)c3c(C)oc(C)c3c(=O)c2)cc1OC	inconclusive: 1.8%	
CCCCN(CC)C(=O)c1ccc2c(c1)OCO2	inconclusive: 29.3%	
COc1cc(/C=N/NC(=O)CCN2CCCCC2)ccc1O		inconclusive: 29.1 µM [cytotoxic, single point]
CCc1ccc(-n2c(=S)sc3c(=O)n(-c4ccccc4)c(SCC(=O)O)nc32)cc1	inconclusive: 62.2%	
COCCN(Cc1cc2cc(C)cc(C)c2nc1Cl)C(=O)Nc1ccccc1	inconclusive: 32.1%	
O=C(Cn1cnc2c(cnn2-c2ccc(F)cc2)c1=O)OCc1ccccc1	inconclusive: -41.8%	
CC(C)N(C(=O)CN1CCC(c2nc3ccccc3[nH]2)CC1)C(C)C		inconclusive: 0.731 µM [activator, single point]
